For one substance, binding results are on record in PMC7648797.

By UniProt entry, the sequences of proteins in these tests, tags left out.
UniProt Q6QI06: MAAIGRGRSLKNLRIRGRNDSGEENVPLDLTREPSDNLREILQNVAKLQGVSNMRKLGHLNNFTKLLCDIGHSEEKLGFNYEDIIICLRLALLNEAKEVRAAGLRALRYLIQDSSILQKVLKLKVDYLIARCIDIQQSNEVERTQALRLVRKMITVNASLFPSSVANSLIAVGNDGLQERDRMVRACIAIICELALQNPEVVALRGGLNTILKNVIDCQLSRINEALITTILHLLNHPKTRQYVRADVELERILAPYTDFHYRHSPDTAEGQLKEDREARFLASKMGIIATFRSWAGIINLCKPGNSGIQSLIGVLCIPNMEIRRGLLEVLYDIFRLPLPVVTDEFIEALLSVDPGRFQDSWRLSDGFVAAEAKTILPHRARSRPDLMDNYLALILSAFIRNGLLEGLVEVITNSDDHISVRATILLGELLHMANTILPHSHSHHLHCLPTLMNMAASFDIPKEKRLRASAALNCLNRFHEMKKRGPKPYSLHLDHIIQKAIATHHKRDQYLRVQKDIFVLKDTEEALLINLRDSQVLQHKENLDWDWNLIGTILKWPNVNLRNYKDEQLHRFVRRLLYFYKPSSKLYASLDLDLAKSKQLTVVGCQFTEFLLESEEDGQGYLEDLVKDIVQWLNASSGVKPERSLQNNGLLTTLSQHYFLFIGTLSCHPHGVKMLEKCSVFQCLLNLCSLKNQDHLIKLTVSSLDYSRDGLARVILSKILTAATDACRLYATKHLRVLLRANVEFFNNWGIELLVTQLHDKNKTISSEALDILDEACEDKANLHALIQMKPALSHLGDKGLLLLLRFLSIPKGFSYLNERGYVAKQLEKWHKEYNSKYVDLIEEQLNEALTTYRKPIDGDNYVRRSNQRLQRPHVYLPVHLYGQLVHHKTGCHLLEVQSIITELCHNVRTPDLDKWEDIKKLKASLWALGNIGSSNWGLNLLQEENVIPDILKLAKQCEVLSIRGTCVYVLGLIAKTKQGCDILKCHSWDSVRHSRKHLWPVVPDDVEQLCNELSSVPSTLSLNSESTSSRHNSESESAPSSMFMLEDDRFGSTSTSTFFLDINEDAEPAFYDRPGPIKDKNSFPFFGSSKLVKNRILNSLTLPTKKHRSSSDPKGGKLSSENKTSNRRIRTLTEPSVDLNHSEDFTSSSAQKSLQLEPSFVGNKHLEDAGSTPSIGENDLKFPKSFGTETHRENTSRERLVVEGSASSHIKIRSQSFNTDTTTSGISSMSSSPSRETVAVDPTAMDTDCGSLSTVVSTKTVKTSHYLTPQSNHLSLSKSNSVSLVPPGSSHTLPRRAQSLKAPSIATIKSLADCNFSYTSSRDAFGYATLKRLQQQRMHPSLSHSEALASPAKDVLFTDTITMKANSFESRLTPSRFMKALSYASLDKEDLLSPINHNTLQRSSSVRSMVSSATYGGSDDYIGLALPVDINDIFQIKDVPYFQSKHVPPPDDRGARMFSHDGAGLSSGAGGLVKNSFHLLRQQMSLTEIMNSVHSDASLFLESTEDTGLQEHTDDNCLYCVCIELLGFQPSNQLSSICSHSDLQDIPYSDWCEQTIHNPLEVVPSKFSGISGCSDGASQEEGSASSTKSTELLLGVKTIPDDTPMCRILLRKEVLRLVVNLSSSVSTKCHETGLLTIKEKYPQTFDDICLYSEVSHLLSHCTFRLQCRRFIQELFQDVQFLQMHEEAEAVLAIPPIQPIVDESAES
UniProt Q8VBV4: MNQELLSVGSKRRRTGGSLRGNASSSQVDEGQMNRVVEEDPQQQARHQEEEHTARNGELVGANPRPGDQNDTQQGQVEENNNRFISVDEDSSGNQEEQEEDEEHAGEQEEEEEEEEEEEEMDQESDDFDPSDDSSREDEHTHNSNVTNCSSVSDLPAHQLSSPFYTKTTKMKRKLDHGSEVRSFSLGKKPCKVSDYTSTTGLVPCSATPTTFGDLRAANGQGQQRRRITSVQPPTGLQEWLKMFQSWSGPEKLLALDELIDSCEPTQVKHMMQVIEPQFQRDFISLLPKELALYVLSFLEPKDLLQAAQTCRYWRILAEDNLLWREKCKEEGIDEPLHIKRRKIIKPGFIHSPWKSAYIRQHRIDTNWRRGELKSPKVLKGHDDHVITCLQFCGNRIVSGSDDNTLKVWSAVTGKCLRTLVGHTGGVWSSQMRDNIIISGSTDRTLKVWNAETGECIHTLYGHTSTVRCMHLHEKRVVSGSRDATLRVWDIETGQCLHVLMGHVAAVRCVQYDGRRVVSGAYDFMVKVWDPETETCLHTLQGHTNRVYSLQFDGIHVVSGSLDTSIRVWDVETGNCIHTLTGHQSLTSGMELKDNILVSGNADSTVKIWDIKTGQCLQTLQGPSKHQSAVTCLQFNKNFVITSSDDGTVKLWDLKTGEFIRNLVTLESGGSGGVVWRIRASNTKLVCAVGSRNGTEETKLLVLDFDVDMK

Results are given in words; binding and its absence hold for the method and conditions named. In cells and extracts the contact can be indirect. Some results given as binding are weak or reduced against the parent protein; the word gives no strength.

This assay has as its target Rictor (mouse (endogenous in NPSCs)) (UniProt Q6QI06). Description: co-IP; Rictor immunoprecipitates from RIPA-like extracts (2 mg) of Parp3+/+ and Parp3-/- NPSC, sicontrol or siFbxw7, blotted for Fbxw7; cells transfected with HA-Ubiquitin and treated with MG132 (1 uM, 6 h), or basal conditions; washes with 250 mM and 150 mM NaCl, 0.1% NP40.

Consider Fbxw7 (from UniProt Q8VBV4 1-710), for which the binding result was “binds”.
